Measurements from publication PMC9984430.
Results are given in words; binding and its absence hold for the method and conditions named. Binding seen in cells or lysates may run through a third protein. Some entries that bind do so weakly or less than the wild type.

B1: endogenous PGC1α in mouse SVF-differentiated primary adipocytes (protein, UniProt O70343 1-797)
chain: MAWDMCSQDSVWSDIECAALVGEDQPLCPDLPELDLSELDVNDLDTDSFLGGLKWCSDQSEIISNQYNNEPANIFEKIDEENEANLLAVLTETLDSLPVDEDGLPSFDALTDGAVTTDNEASPSSMPDGTPPPQEAEEPSLLKKLLLAPANTQLSYNECSGLSTQNHAANHTHRIRTNPAIVKTENSWSNKAKSICQQQKPQRRPCSELLKYLTTNDDPPHTKPTENRNSSRDKCASKKKSHTQPQSQHAQAKPTTLSLPLTPESPNDPKGSPFENKTIERTLSVELSGTAGLTPPTTPPHKANQDNPFKASPKLKPSCKTVVPPPTKRARYSECSGTQGSHSTKKGPEQSELYAQLSKSSGLSRGHEERKTKRPSLRLFGDHDYCQSLNSKTDILINISQELQDSRQLDFKDASCDWQGHICSSTDSGQCYLRETLEASKQVSPCSTRKQLQDQEIRAELNKHFGHPCQAVFDDKSDKTSELRDGDFSNEQFSKLPVFINSGLAMDGLFDDSEDESDKLSYPWDGTQPYSLFDVSPSCSSFNSPCRDSVSPPKSLFSQRPQRMRSRSRSFSRHRSCSRSPYSRSRSRSPGSRSSSRSCYYYESSHYRHRTHRNSPLYVRSRSRSPYSRRPRYDSYEAYEHERLKRDEYRKEHEKRESERAKQRERQKQKAIEERRVIYVGKIRPDTTRTELRDRFEVFGEIEECTVNLRDDGDSYGFITYRYTCDAFAALENGYTLRRSNETDFELYFCGRKQFFKSNYADLDTNSDDFDPASTKSKYDSLDFDSLLKEAQRSLRR

Experiments:
[1] = target: mouse PPARγ2, wild type, overexpressed in HEK293T cells (mouse) (UniProt P37238); assay: co-IP; HEK293T cells co-transfected with PPARγ2 and the partner gene (pcDNA3.1(-)), lysed after 24 h; IP with 0.5 μg anti-Flag overnight at 4 °C, Protein A + G agarose; washed 7 times in 150 mM NaCl, 1 mM EDTA, 20 mM Tris, 1% Triton X-100, pH 8.0; cells treated with PMA (100 nM) and Ro (2 μM), RSG (1 μM) or CDDO (100 nM)
[2] = target: endogenous PPARγ T166A in SVF-differentiated primary adipocytes of homozygous TA knock-in mice (mouse (endogenous in SVF-differentiated primary adipocytes)) (UniProt P37238); assay: co-IP; mature SVF-differentiated primary adipocytes of homozygous WT, TA and TD mice, lysed; IP of endogenous PPARγ with 2 μg mouse anti-PPARγ (Santa Cruz, sc-7273)
[3] = target: endogenous PPARγ, wild type, in SVF-differentiated primary adipocytes of homozygous WT mice (mouse (endogenous in SVF-differentiated primary adipocytes)) (UniProt P37238); assay: as above

Molecule	binding [1]	binding [2]	binding [3]
mouse PKCα, exogenous, in HEK293T cells (from UniProt P20444 1-672) (enzyme)	binds	–	–
B1	–	binds	binds
